Laboratory results published in article PMC9987799.
No constants are given. Whether binding was seen depends on the method and setting. Tags and fused reporters may be left off the sequences shown.

Amino acid sequences for entries named in this document (tags omitted). Residues count along the entry.
UniProt P26196, residues 289-483: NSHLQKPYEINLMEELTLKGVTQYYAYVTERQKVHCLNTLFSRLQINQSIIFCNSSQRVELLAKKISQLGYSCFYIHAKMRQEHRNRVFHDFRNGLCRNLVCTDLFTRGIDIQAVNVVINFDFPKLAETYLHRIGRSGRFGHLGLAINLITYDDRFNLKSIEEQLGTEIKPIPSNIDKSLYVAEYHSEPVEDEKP

Target: T1, GFP-PATL1(398–770) (UniProt Q86TB9)
T1 sequence: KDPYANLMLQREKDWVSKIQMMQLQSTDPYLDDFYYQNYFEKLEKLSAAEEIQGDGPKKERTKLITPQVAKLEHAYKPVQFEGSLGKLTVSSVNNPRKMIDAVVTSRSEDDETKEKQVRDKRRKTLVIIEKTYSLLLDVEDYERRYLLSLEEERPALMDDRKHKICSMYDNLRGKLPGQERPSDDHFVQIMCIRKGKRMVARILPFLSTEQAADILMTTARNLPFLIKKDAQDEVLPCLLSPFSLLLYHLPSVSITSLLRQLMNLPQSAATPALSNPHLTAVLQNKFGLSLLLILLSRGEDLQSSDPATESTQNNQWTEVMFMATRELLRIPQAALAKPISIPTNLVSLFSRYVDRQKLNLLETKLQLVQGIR
Experiment: two-hybrid; fluorescence-based mammalian two-hybrid with three plasmids (NLS-EDC4, a GFP-PATL1 construct, mCh-NLS-DDX6(289–483)) in HEp-2 cells, treated with leptomycin B for two hours

binding: no binding
Substance: mCh-NLS-DDX6(289–483) (from UniProt P26196 289-483) (domain or fragment)
